Results deposited as PubChem BioAssay AID1259308 (NCATS, 2017)
Screen: 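Candidate targets for better recombinant protein yield in mammalian cells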 (primary screen). Cells: human HEK293 embryonic kidney cells stably expressing firefly luciferase (HEK-CMV-Luc2-Hygro). Reagent: single siRNA against human genes, 0.8 pmol siRNA per well. Time to read-out: 72 h. Measurement: 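Reporter luminescence and viable-cell signal on separate replicate plates, given as percent of non-targeting control and median/MAD z-scores, plus per-cell luciferase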. Scale: total luciferase, z-score and total luciferase, % of control: higher = more reporter protein produced. Hit rule: 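Active when the median/MAD z-score for overall luciferase is greater than 3; a gene was taken forward for validation with new siRNAs if at least two of its three siRNAs passed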. Calls: active = raised luciferase; inactive = no rise.
The deposit covers about 59,000 reagents; shown is a part drawn at random. About 1,510 of all reagents (2.6%) count as active. 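Calls use total luciferase alone and ignore viability, so some active siRNAs may act by altering cell number.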 The numbers tell different reagents against one gene apart. Further read-outs or replicates are left out here.

| gene | reagent | total luciferase, z-score | total luciferase, % of control | activity call |
| --- | --- | --- | --- | --- |
| CSMD1 | 1 | 1.16 | 105 | inactive |
| CSMD1 | 2 | 0.808 | 97.9 | inactive |
| CSMD1 | 3 | -0.138 | 79.2 | inactive |
| RAB14 | 1 | -1.08 | 60.4 | inactive |
| RAB14 | 2 | -0.527 | 71.4 | inactive |
| RAB14 | 3 | 0.00968 | 82.1 | inactive |
| CFC1 | 1 | -0.988 | 62.2 | inactive |
| CFC1 | 2 | 0.222 | 86.3 | inactive |
| CFC1 | 3 | -1.74 | 47.4 | inactive |
| EIF3J | 1 | -0.806 | 65.8 | inactive |
| EIF3J | 2 | -0.628 | 69.4 | inactive |
| EIF3J | 3 | -0.919 | 63.6 | inactive |
| MATN4 | 1 | 2.8 | 138 | inactive |
| MATN4 | 2 | 2.02 | 122 | inactive |
| MATN4 | 3 | -0.0694 | 80.5 | inactive |
| NUP133 | 1 | -1.16 | 58.8 | inactive |
| NUP133 | 2 | -0.948 | 63 | inactive |
| NUP133 | 3 | 2.2 | 126 | inactive |
| ACTRT1 | 1 | 0.569 | 93.2 | inactive |
| ACTRT1 | 2 | 3.3 | 148 | active |
| ACTRT1 | 3 | -0.323 | 75.5 | inactive |
| OOSP1 | 1 | 0.108 | 84 | inactive |
| OOSP1 | 2 | -0.474 | 72.4 | inactive |
| OOSP1 | 3 | 0.0607 | 83.1 | inactive |

Records listed so far called active:
| gene | reagent | total luciferase, z-score | total luciferase, % of control | activity call |
| --- | --- | --- | --- | --- |
| ACTRT1 | 2 | 3.3 | 148 | active |

Continued.
| gene | reagent | total luciferase, z-score | total luciferase, % of control | activity call |
| --- | --- | --- | --- | --- |
| RPL29P23 | 1 | -1.7 | 48.1 | inactive |
| RPL29P23 | 2 | -0.482 | 72.3 | inactive |
| RPL29P23 | 3 | -0.274 | 76.4 | inactive |
| OR52A4P | 1 | -0.0295 | 81.3 | inactive |
| OR52A4P | 2 | 1.5 | 112 | inactive |
| OR52A4P | 3 | 1.39 | 110 | inactive |
| PEX19 | 1 | -2.62 | 29.8 | inactive |
| PEX19 | 2 | 0.552 | 92.9 | inactive |
| PEX19 | 3 | 0.353 | 88.9 | inactive |
| ZNF436 | 1 | -0.943 | 63.1 | inactive |
| ZNF436 | 2 | -1.67 | 48.8 | inactive |
| ZNF436 | 3 | 0.746 | 96.7 | inactive |
| GRIK4 | 1 | 2.72 | 136 | inactive |
| GRIK4 | 2 | -0.937 | 63.3 | inactive |
| GRIK4 | 3 | -0.596 | 70 | inactive |
